Data as given in PMC9649694.
These are yes or no findings as the source states them, for the method shown. In cells and extracts the contact can be indirect. A yes stands for co-enrichment or nearness to the bait. Other partners may have been found.

Protein sequences, listed by entry. Tags and fused reporters are not part of them.
UniProt Q9H1Y0: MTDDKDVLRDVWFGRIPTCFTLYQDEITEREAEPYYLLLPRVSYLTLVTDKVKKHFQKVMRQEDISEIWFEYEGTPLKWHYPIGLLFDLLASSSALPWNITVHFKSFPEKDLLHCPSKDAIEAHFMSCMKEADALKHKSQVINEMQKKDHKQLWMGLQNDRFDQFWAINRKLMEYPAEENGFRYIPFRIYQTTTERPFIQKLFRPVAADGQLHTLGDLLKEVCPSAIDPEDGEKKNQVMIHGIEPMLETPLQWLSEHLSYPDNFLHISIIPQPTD
UniProt O60260: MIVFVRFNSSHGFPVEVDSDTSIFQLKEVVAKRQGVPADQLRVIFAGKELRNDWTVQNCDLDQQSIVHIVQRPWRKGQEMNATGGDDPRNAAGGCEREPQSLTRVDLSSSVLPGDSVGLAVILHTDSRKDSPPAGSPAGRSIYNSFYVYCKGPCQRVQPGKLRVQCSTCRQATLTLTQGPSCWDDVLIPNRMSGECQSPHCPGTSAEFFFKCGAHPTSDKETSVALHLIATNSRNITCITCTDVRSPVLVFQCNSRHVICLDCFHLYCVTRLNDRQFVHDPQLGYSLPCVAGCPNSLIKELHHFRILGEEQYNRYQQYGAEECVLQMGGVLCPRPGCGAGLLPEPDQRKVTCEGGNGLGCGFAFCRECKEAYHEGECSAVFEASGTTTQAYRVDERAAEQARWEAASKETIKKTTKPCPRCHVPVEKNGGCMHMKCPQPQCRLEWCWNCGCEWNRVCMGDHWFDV
UniProt O14818: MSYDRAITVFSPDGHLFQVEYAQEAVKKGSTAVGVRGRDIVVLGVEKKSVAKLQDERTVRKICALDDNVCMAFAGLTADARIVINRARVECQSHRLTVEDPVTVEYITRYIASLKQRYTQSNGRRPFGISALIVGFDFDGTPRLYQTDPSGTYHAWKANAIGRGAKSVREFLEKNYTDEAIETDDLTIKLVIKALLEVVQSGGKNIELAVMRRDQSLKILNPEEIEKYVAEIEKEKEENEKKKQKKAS

Experiments:
[1] = biological target: FLAG-ATG5 (human) (UniProt Q9H1Y0); assay: affinity purification with mass spectrometry; SILAC-MS/MS on mitochondria isolated from Tri-SILAC labeled FLAG-ATG5 expressing HEK 293 T cells; CCCP against control; n = 3
[2] = biological target: FLAG-ATG5 (human) (UniProt Q9H1Y0); assay: affinity purification with mass spectrometry; SILAC-MS/MS interactome with ATG5 as bait; Tri-SILAC labeled FLAG-ATG5 expressing HEK 293 T cell extracts; CCCP against control; n = 1

binding [1]	binding [2]	Substance
binds		PARK2 found by SILAC-MS/MS (from UniProt O60260 1-465)
	binds	PSMA7 (endogenous, HEK 293 T cells) (from UniProt O14818 1-248)
